Data published in patent US20110230478A1 (Bayer ScienceCrop AG, priority 2008, published 2011).
Some of these results come from one statement about several compounds together.

What was measured:
Assay type in all cases: in vivo
Alternaria solani = test: Alternaria test (tomato)/protective; conditions: tomato plants, protective, active compound concentration 500 ppm, evaluation 7 days after inoculation
Pyrenophora teres = Pyrenophora teres test (barley)/protective; conditions: barley plants, protective, active compound concentration 500 ppm, evaluation 7-9 days after inoculation
Venturia inaequalis = test: Venturia test (apple)/protective; conditions: apple plants, protective, active compound concentration 100 ppm, evaluation 10 days after inoculation

| Compound | efficacy (Alternaria solani) [%] | efficacy (Pyrenophora teres) [%] | efficacy (Venturia inaequalis) [%] |
| --- | --- | --- | --- |
| COCCNc1nc(Nc2ccccc2)ncc1Cl [Example 3] | ≥ 70 | – | – |
| CCC(COC)N(C)c1nc(Nc2ccccc2)ncc1Br (centres unmarked) [Example 232] | ≥ 70 | ≥ 70 | – |
| COCC(C)Nc1nc(Nc2ccc(N3C(=O)CN(C)C3=O)cc2)ncc1Cl (centres unmarked) [Example 227] | ≥ 70 | – | – |
| OCCNc1nc(Nc2ccccc2)ncc1Cl [Example 285] | – | ≥ 70 | – |
| COCC(C)Nc1nc(Nc2cccc(C#N)c2)ncc1Cl (centres unmarked) [Example 83] | ≥ 70 | – | – |
| CNC(=O)c1ccc(Nc2ncc(Br)c(NC(C)COC)n2)cc1 (racemic) [Example 127] | – | – | ≥ 70 |
| COCC(C)Nc1nc(Nc2cccc(NC(=O)C(C)(C)CF)c2)ncc1Cl (centres unmarked) [Example 166] | – | ≥ 70 | – |
| CC(C)Nc1nc(Nc2ccccc2)ncc1Cl [Example 36] | – | – | ≥ 70 |
| COCC(C)Nc1nc(Nc2cccc(SC)c2)ncc1Cl (centres unmarked) [Example 101] | – | ≥ 70 | – |
| COCCNc1nc(Nc2cc(OC)cc(OC)c2)ncc1Cl.Cl [Example 62] | – | ≥ 70 | – |
| CCN(C)S(=O)(=O)Cc1cccc(Nc2ncc(Cl)c(NC(C)C)n2)c1 [Example 243] | ≥ 70 | ≥ 70 | – |
| COCC(C)Nc1nc(Nc2ccc(C(=O)NC(C)(C)C)cc2)ncc1Cl (racemic) [Example 137] | ≥ 70 | – | ≥ 70 |
| CC(=O)c1cccc(Nc2ncc(Cl)c(NC3CCCCC3)n2)c1 [Example 262] | ≥ 70 | – | – |
| C=CCNC(=O)c1ccc(Nc2ncc(Br)c(NC(C)COC)n2)cc1 (racemic) [Example 128] | ≥ 70 | ≥ 70 | ≥ 70 |
| COCC(C)Nc1nc(Nc2ccc(OC)cc2)ncc1Cl (centres unmarked) [Example 86] | – | ≥ 70 | – |
| C=C(C)C(=O)Nc1cccc(Nc2ncc(Cl)c(NC(C)C)n2)c1 [Example 196] | – | ≥ 70 | – |
| COCC(C)Nc1nc(Nc2ccc3sc(C)nc3c2)ncc1Br (centres unmarked) [Example 122] | ≥ 70 | ≥ 70 | – |
| CCN(C)c1nc(Nc2cccc(SC)c2)ncc1Cl [Example 239] | – | ≥ 70 | – |
| CCOC(=O)Nc1cccc(Nc2ncc(Cl)c(NC(C)C)n2)c1 [Example 216] | – | ≥ 70 | – |
| CC(=O)c1cccc(Nc2ncc(Cl)c(NC(C)C)n2)c1.Cl [Example 50] | – | ≥ 70 | – |
| COCC(C)Nc1nc(Nc2cccc(SC)c2)ncc1Br (centres unmarked) [Example 77] | – | – | ≥ 70 |

| Compound | efficacy (Alternaria solani) [%] | efficacy (Pyrenophora teres) [%] | efficacy (Venturia inaequalis) [%] |
| --- | --- | --- | --- |
| COCC(C)Nc1nc(Nc2cccc(OC)c2)ncc1Cl (centres unmarked) [Example 85] | ≥ 70 | ≥ 70 | – |
| COc1ccc(Nc2ncc(Cl)c(NC(C)C)n2)cc1 [Example 183] | – | ≥ 70 | ≥ 70 |
| COCC(C)Nc1nc(Nc2ccc(S(C)(=O)=O)cc2)ncc1Cl (racemic) [Example 145] | – | ≥ 70 | – |
| COCC(C)Nc1nc(Nc2cccc(NC(=O)OC)c2)ncc1Cl (centres unmarked) [Example 153] | – | ≥ 70 | – |
| COCC(C)Nc1nc(Nc2cccc(NC=O)c2)ncc1Br (racemic) [Example 132] | ≥ 70 | ≥ 70 | – |
| CCOC(=O)Nc1ccc(Nc2ncc(Cl)c(NC(C)C)n2)cc1 [Example 202] | – | – | ≥ 70 |
| COCC(C)Nc1nc(Nc2ccc3c(c2)CCN3C(C)=O)ncc1Br (centres unmarked) [Example 79] | – | ≥ 70 | – |
| CCOC(=O)Nc1cccc(Nc2ncc(Cl)c(NC(C)COC)n2)c1 (racemic) [Example 143] | – | ≥ 70 | – |
| COCCNc1nc(Nc2cc(OC)cc(OC)c2)ncc1Cl [Example 4] | ≥ 70 | ≥ 70 | ≥ 70 |
| CCN(C(C)=O)c1ccc(Nc2ncc(Cl)c(NC(C)C)n2)cc1 [Example 191] | ≥ 70 | – | ≥ 70 |
| CNC(=O)c1cccc(Nc2ncc(Br)c(NC(C)COC)n2)c1 (racemic) [Example 124] | – | ≥ 70 | – |
| COCC(C)Nc1nc(Nc2cccc(CC(=O)OC)c2)ncc1Br (centres unmarked) [Example 113] | ≥ 70 | – | ≥ 70 |
| COCC(C)Nc1nc(Nc2cccc(NC(C)=O)c2)ncc1Br (centres unmarked) [Example 80] | ≥ 70 | – | – |
| COCC(C)Nc1nc(Nc2cccc(NC(=O)Oc3ccccc3)c2)ncc1Cl (centres unmarked) [Example 165] | – | ≥ 70 | – |
| CC(C)Nc1nc(Nc2cccc(C(F)F)c2)ncc1Cl [Example 281] | – | ≥ 70 | – |
| Clc1cnc(Nc2ccccc2)nc1NC1CCCC1 [Example 254] | – | ≥ 70 | – |
| CSc1cccc(Nc2ncc(Cl)c(NCC(C)C)n2)c1 [Example 283] | – | ≥ 70 | – |
| COCC(C)Nc1nc(Nc2ccc3c(c2)CCC3=O)ncc1Cl (centres unmarked) [Example 103] | – | ≥ 70 | – |
| CC(C)Nc1nc(Nc2ccc(S(C)(=O)=O)cc2)ncc1Cl [Example 186] | – | ≥ 70 | – |
| COc1cccc(Nc2ncc(Cl)c(NC(C)C)n2)c1 [Example 182] | – | ≥ 70 | – |
| CCNc1nc(Nc2ccccc2)ncc1Cl [Example 240] | – | ≥ 70 | – |

| Compound | efficacy (Alternaria solani) [%] | efficacy (Pyrenophora teres) [%] | efficacy (Venturia inaequalis) [%] |
| --- | --- | --- | --- |
| COCC(C)Nc1nc(Nc2cccc(CC(=O)OC)c2)ncc1Cl (centres unmarked) [Example 93] | ≥ 70 | – | ≥ 70 |
| COCC(C)Nc1nc(Nc2ccc(NC(C)=O)c(OC)c2)ncc1Cl (racemic) [Example 140] | ≥ 70 | ≥ 70 | – |
| CC(C)Nc1nc(Nc2cccc(NC(=O)C3(C)CC3)c2)ncc1Cl [Example 207] | ≥ 70 | – | – |
| COC(=O)Nc1cccc(Nc2ncc(Cl)c(NC(C)C)n2)c1 [Example 204] | ≥ 70 | ≥ 70 | ≥ 70 |
| C=CCNc1nc(Nc2ccccc2)ncc1Cl.Cl [Example 66] | – | ≥ 70 | – |
| CC(C)Nc1nc(Nc2ccc(NC(=O)C(F)(F)F)cc2)ncc1Cl [Example 193] | ≥ 70 | – | – |
| COCC(C)Nc1nc(Nc2ccc(N(C)C(C)=O)cc2)ncc1Cl (centres unmarked) [Example 99] | – | ≥ 70 | – |
| COCC(C)Nc1nc(Nc2cccc(S(=O)(=O)N3CCOCC3)c2)ncc1Cl (centres unmarked) [Example 29] | ≥ 70 | – | – |
| CCNc1nc(Nc2cccc(SC)c2)ncc1Cl [Example 238] | ≥ 70 | ≥ 70 | – |
| COCC(C)Nc1nc(Nc2cccc(S(=O)(=O)N(C)C)c2)ncc1Br (centres unmarked) [Example 72] | ≥ 70 | ≥ 70 | – |
| CC(=O)c1cccc(Nc2ncc(Cl)c(NC3CCCCC3)n2)c1.Cl [Example 249] | ≥ 70 | – | ≥ 70 |
| COCC(C)Nc1nc(Nc2ccc(C(=O)Nc3ccccc3)cc2)ncc1Br (racemic) [Example 126] | ≥ 70 | – | – |
| COCC(C)Nc1nc(Nc2ccc(N(C)C(C)=O)cc2)ncc1Br (centres unmarked) [Example 119] | ≥ 70 | – | – |
| COCC(C)Nc1nc(Nc2ccc3c(c2)CCN3C(C)=O)ncc1Cl (centres unmarked) [Example 107] | ≥ 70 | – | – |
| CC(C)Nc1nc(Nc2cccc(S(=O)(=O)N3CCCCC3)c2)ncc1Cl [Example 198] | ≥ 70 | – | – |
| CC(C)Nc1nc(Nc2ccc(NC(=O)C(C)(C)C)cc2)ncc1Cl [Example 188] | ≥ 70 | ≥ 70 | – |
| CC(C)Nc1nc(Nc2ccc(SC(F)F)cc2)ncc1Cl [Example 212] | ≥ 70 | – | – |
| Brc1cnc(Nc2ccccc2)nc1NC1CCCC1 [Example 253] | – | ≥ 70 | – |
| COCC(C)Nc1nc(Nc2ccc(CC(=O)C(C)(C)C)cc2)ncc1Cl (centres unmarked) [Example 151] | – | – | ≥ 70 |
| CC(=O)N(C)c1ccc(Nc2ncc(Cl)c(NC(C)C)n2)cc1 [Example 192] | ≥ 70 | ≥ 70 | ≥ 70 |
| CCN(C)c1nc(Nc2ccccc2)ncc1Cl [Example 241] | – | ≥ 70 | – |

| Compound | efficacy (Alternaria solani) [%] | efficacy (Pyrenophora teres) [%] | efficacy (Venturia inaequalis) [%] |
| --- | --- | --- | --- |
| CC(C)Nc1nc(Nc2cccc(CS(=O)(=O)N(C)C(C)C)c2)ncc1Cl [Example 242] | ≥ 70 | ≥ 70 | – |
| CC(=O)Nc1ccc(Nc2ncc(Cl)c(NC(C)C)n2)cc1 [Example 189] | ≥ 70 | ≥ 70 | ≥ 70 |
| CC(C)Nc1nc(Nc2cccc(S(=O)(=O)N(C)C)c2)ncc1Cl [Example 47] | – | ≥ 70 | – |
| CCCNc1nc(Nc2cccc(SC)c2)ncc1Cl [Example 284] | – | ≥ 70 | – |
| CCC(C)Nc1nc(Nc2ccccc2)ncc1Cl.Cl (centres unmarked) [Example 65] | – | ≥ 70 | – |
| CC(C)Nc1nc(Nc2cccc(CN3CCN(C)C3=O)c2)ncc1Cl [Example 48] | ≥ 70 | – | – |
| CC(C)Nc1nc(Nc2ccccc2)ncc1Br [Example 247] | – | ≥ 70 | – |
| CC(C)Nc1nc(Nc2cccc(NC(=O)C(C)(C)C)c2)ncc1Cl [Example 197] | – | ≥ 70 | – |
| COCC(C)Nc1nc(Nc2ccc(OC)nc2)ncc1Cl (centres unmarked) [II-2] | – | ≥ 70 | – |
| CC(C)Nc1nc(Nc2cccc(CS(=O)(=O)NC(C)c3ccccc3)c2)ncc1Cl (centres unmarked) [Example 248] | ≥ 70 | – | – |
| C=CCNc1nc(Nc2ccccc2)ncc1Cl [Example 286] | – | ≥ 70 | – |
| COCC(C)Nc1nc(Nc2ccc(NC=O)cc2)ncc1Cl (racemic) [Example 138] | ≥ 70 | ≥ 70 | – |
| COCC(C)Nc1nc(Nc2ccc(NC=O)cc2)ncc1Br (racemic) [Example 131] | ≥ 70 | ≥ 70 | – |
| COCC(C)Nc1nc(Nc2ccc(C(=O)CC#N)cc2)ncc1Br (centres unmarked) [Example 121] | ≥ 70 | ≥ 70 | – |
| CC(C)Nc1nc(Nc2cccc(CC#N)c2)ncc1Br [Example 246] | – | ≥ 70 | – |
| CC(=O)Nc1ccc(Nc2ncc(Cl)c(NC(C)C)n2)cc1Cl [Example 190] | ≥ 70 | – | – |
| CC(=O)Nc1cccc(Nc2ncc(Cl)c(NC(C)C)n2)c1 [Example 195] | ≥ 70 | ≥ 70 | – |
| CCOc1cccc(Nc2ncc(Br)c(NC(C)COC)n2)c1 (centres unmarked) [Example 116] | – | ≥ 70 | – |
| CC(C)Nc1nc(Nc2ccc(O)cc2)ncc1Cl [Example 213] | ≥ 70 | ≥ 70 | – |
